Screening data

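SH-SY5Y cells carrying a GLuc-SERCaMP reporter are challenged with thapsigargin, and luminescence from the secreted luciferase is read, with one incubation step lasting 4 hours.
Compounds were run as a dilution series spanning about 2.6e-05 to 200 µM, mostly topping out at 38.4 µM.
The number is the fitted AC50 for inhibition of the reporter signal; a lower value means a more potent compound.
Calls come from curve class and activity score: actives score 40 to 100, inconclusives 1 to 39, and inactives (curve class 4) score 0.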

Values are in µM.
Every entry below has the call inconclusive.
These entries are mostly ones the record files as inconclusive; other results of the assay are not listed here.
Potencies fitted to partial, single-point or poorly fitting curves are rough.
Some entries filed as inconclusive have a full curve.
Activity scores are not listed here.

SMILES | fitted potency (µM) | curve
N=C(C[C@@H](O)COc1ccccc1-c1ccccc1)N1CCCCC1 | 28.18 | inhibitor, single point
COCCn1c(=O)c(C)nc2cnc(Oc3cccc(Cl)c3)nc21 | 28.18 | inhibitor, single point
CCCC(=O)Nc1ncnc2c1ncn2[C@@H]1O[C@@H]2COP(=O)(O)O[C@H]2[C@H]1OC(=O)CCC | 10 | inhibitor, partial curve, poor fit
CNCCc1ccc(O)c(O)c1 | 10 | inhibitor, partial curve, poor fit
COc1ccc(-c2nc(C(=O)N3CCN(C)CC3)sc2-c2ccc(OC)cc2)cc1 | 11.22 | inhibitor, single point
Cc1c(OCC(F)(F)F)ccnc1CS(=O)c1nc2ccccc2[nH]1 (stereo not given) | 28.18 | inhibitor, single point
COc1c2c(nc3ccccc13)OC(C(C)(O)CO)C2 (stereo not given) | 3.981 | inhibitor, full curve, poor fit
COc1ccc(-n2c(=O)c(C)nc3cnc(Oc4cccc(Cl)c4)nc32)cc1 | 28.18 | inhibitor, single point
CCOc1ncc(F)c(=O)[nH]1 | 35.48 | inhibitor, full curve
CC1(C)S[C@@H]2[C@H](NC(=O)C(c3ccccc3)S(=O)(=O)O)C(=O)N2[C@H]1C(=O)O (stereo not given in full) | 3.162 | inhibitor, full curve, poor fit
CNc1cc(OC)c(C(=O)N[C@H]2CCN(Cc3ccccc3)[C@H]2C)cc1Cl | 2.239 | inhibitor, full curve
C[C@H](Cc1ccc(O)c(O)c1)[C@@H](C)Cc1ccc(O)c(O)c1 | 3.548 | inhibitor, partial curve, poor fit
COc1ccc(-n2c(=O)c(-c3ccc(F)cc3)nc3cnc(N4CCNCC4)nc32)cc1 | 31.62 | inhibitor, single point
CC(C)ON([C@@H](C(=O)NO)C(C)C)S(=O)(=O)c1ccc(-c2ccccc2)cc1 | 2.239 | inhibitor, full curve, poor fit
CP(=O)(O)C1=CCNCC1 | 14.13 | inhibitor, partial curve, poor fit
COc1cccc(Cn2c(=O)cnc3cnc(N4CCN(C)CC4)nc32)c1 | 11.22 | inhibitor, single point
CC(C(=O)O)c1cccc(Oc2ccccc2)c1 (stereo not given) | 31.62 | inhibitor, partial curve, poor fit
O=C1c2ccccc2C(=O)c2c1ccc(O)c2O | 11.22 | inhibitor, partial curve, poor fit
C=C[C@@H]1CN2CCC1C[C@@H]2C(O)c1ccnc2ccc(OC)cc12 (stereo not given in full) | 16.77 | inhibitor, single point
O=c1c(-c2ccccc2)nc2cncnc2n1Cc1ccccc1 | 31.62 | inhibitor, single point
COc1ccc(NC(=O)N2CCC3(CC2)CCN(S(=O)(=O)c2ccccc2)CC3)cc1 | 6.31 | inhibitor, partial curve, poor fit
O=C(O)C1NCCN(C(=O)c2ccc3c(ccc4ccccc43)c2)C1C(=O)O (stereo not given) | 25.12 | inhibitor, full curve
O[Si](CCCN1CCCCC1)(c1ccc(F)cc1)C1CCCCC1 (stereo not given) | 11.22 | inhibitor, partial curve, poor fit
O=Nc1c(-c2c(O)[nH]c3ccccc23)[nH]c2ccccc12 | 12.59 | inhibitor, partial curve, poor fit
CCCCCCCCCCCCCCNCCO | 1.995 | inhibitor, full curve
COCCn1c(=O)c(-c2ccccc2)nc2cnc(Oc3ccccc3)nc21 | 28.18 | inhibitor, single point
N[C@@H](CCS(=O)O)C(=O)O | 3.981 | inhibitor, partial curve, poor fit
COc1ccccc1-c1cncnc1N1CCN(C)CC1 | 3.162 | inhibitor, partial curve, poor fit
O=C(NCCN1CCOCC1)c1ccc(Cl)cc1 | 11.22 | inhibitor, partial curve, poor fit
COc1ccc2[nH]cc(CCNc3ncncc3-c3ccccc3C)c2c1 | 19.95 | inhibitor, single point
COc1cccc(Cn2c(=O)c(-c3ccccc3)nc3cnc(N4CCNCC4)nc32)c1 | 7.943 | inhibitor, partial curve, poor fit
CN(C(=O)Cc1ccc(Cl)c(Cl)c1)[C@H](CN1CCCC1)c1ccccc1 | 7.08 | inhibitor, partial curve, poor fit
c1cncc(CNc2nc(-c3cccnc3)nc3ccccc23)c1 | 28.18 | inhibitor, single point
CN(C)C(=O)c1ccc(-c2ccc3ncnc(NCc4cccnc4)c3c2)cc1 | 28.18 | inhibitor, single point
C=C(C)C1CCC(C)=CC1c1c(OC)cc(C)cc1OC (stereo not given) | 11.22 | inhibitor, partial curve, poor fit
CN1CC[C@@H]2CN3CCc4cccc(c43)[C@H]2C1 | 3.981 | inhibitor, partial curve, poor fit
Oc1ccc2ccccc2c1SSc1c(O)ccc2ccccc12 | 6.31 | inhibitor, partial curve, poor fit
COc1c2c(c(C(=O)/C=C/C(C)=C/c3ccccc3)c3c1OCO3)CCN(C)C2 | 11.22 | inhibitor, partial curve, poor fit
Cc1ccc(OCC(O)C(C)NC(C)C)c2c1CCC2 (stereo not given) | 28.18 | inhibitor, single point
CC1(C)OC(=O)NC1=O | 1 | inhibitor, full curve
COc1cc(N)c(Cl)cc1C(=O)N[C@H]1CCN(CCCOc2ccc(F)cc2)C[C@@H]1OC | 10 | inhibitor, partial curve, poor fit
N=C(N)SCCN=C(N)N | 2.239 | inhibitor, full curve
CCN(CC)CCCCCCCCOC(=O)c1cc(OC)c(OC)c(OC)c1 | 22.39 | inhibitor, single point

Once more, the final 5:

* Cc1ccc(OCC(O)C(C)NC(C)C)c2c1CCC2 (stereo not given) : fitted potency 28.18 µM (inhibitor, single point)
* CC1(C)OC(=O)NC1=O : fitted potency 1 µM (inhibitor, full curve)
* COc1cc(N)c(Cl)cc1C(=O)N[C@H]1CCN(CCCOc2ccc(F)cc2)C[C@@H]1OC : fitted potency 10 µM (inhibitor, partial curve, poor fit)
* N=C(N)SCCN=C(N)N : fitted potency 2.239 µM (inhibitor, full curve)
* CCN(CC)CCCCCCCCOC(=O)c1cc(OC)c(OC)c(OC)c1 : fitted potency 22.39 µM (inhibitor, single point)

Source: PubChem BioAssay AID1508630 (NCATS, 2021).